Experimental data from paper doi:10.1101/2021.01.29.428592.
Results are given in words; binding and its absence hold for the method and conditions named. Sequences can lack the tags named with a protein.

Target: T25-RhlE2, bacterial two-hybrid fusion of RhlE2 (P. aeruginosa) (UniProt Q9I689)
Experiment: two-hybrid

B1: PNPase, bacterial two-hybrid fusion (enzyme, UniProt Q9HV59 1-701)
chain: MNPVTKQFQFGQSTVTLETGRIARQATGAVLVTMDDVSVLVTVVGAKSPAEGRDFFPLSVHYQEKTYAAGRIPGGFFKREGRPSEKETLTSRLIDRPIRPLFPEGFMNEVQVVCTVVSTNKKSDPDIAAMIGTSAALAISGIPFAGPIGAARVGFHPEIGYILNPTYEQLQSSSLDMVVAGTEDAVLMVESEADELTEDQMLGAVLFAHDEFQAVIRAVKELAAEAGKPAWDWKAPAENTVLVNAIKAELGEAISQAYTITIKQDRYNRLGELRDQAVALFAGEEEGKFPASEVKDVFGLLEYRTVRENIVNGKPRIDGRDTRTVRPLRIEVGVLGKTHGSALFTRGETQALVVATLGTARDAQLLDTLEGERKDAFMLHYNFPPFSVGECGRMGSPGRREIGHGRLARRGVAAMLPTQDEFPYTIRVVSEITESNGSSSMASVCGASLALMDAGVPVKAPVAGIAMGLVKEGEKFAVLTDILGDEDHLGDMDFKVAGTDKGVTALQMDIKINGITEEIMEIALGQALEARLNILGQMNQVIAKPRAELSENAPTMLQMKIDSDKIRDVIGKGGATIRGICEETKASIDIEDDGSVKIYGETKEAAEAAKLRVLAITAEAEIGKIYVGKVERIVDFGAFVNILPGKDGLVHISQISDKRIDKVTDVLQEGQEVKVLVLDVDNRGRIKLSIKDVAAAEASGV
binding: no binding
